Test results published in patent US20160122426A1 (DONG A SOCIO, published 2016).
Positions count from the first letter of the chain named. No constants are given. Whether binding was seen depends on the method and setting. Some entries that bind do so weakly or less than the wild type.

Sequences of proteins named here, by UniProt entry; tags and fusion partners are left off. A change or cut given only in a name is not applied to a line headed by its entry. A line that says so, or that is headed by a name, gives the form on record, which may keep a tag or linker.
human VEGF (P15692-4, form named): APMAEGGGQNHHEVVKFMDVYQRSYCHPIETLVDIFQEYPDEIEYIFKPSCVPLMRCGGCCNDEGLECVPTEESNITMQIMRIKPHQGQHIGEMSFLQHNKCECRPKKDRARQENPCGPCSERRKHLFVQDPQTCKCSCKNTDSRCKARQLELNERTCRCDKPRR

Legend:
human VEGF [1] = target: T1, human VEGF (human, UniProt P15692-4 27-191); assay: ELISA, human VEGF coated, absorbance 650 nm [f]
T1 construct: Bought recombinant protein; also called hVEGF; human VEGF-A

human VEGF [2] = target: T1, human VEGF; assay: ELISA, human VEGF coated, anti-human Fc-HRP
mouse VEGF = target: T2, mouse VEGF (mouse, UniProt Q00731-2 27-190); assay: ELISA, 0.2 µg/ml VEGF coated, scFv or IgG serially diluted
T2 construct: Bought recombinant protein; also called mVEGF-A; mouse VEGF-A
T2 sequence (looked up): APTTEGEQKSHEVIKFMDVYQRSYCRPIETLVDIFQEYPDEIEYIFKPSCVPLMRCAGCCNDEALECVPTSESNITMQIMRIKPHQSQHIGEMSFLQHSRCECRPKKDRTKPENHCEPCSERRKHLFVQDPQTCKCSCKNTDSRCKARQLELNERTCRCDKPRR
Protocol: ELISA plates were coated with 0.2 μg/ml of human VEGF and mouse VEGF (R&D systems, USA) respectively, and the purified proteins obtained in Example 5 in the form of scFv expressed by HB2151 or IgG expressed by 293F cells were incubated at serially diluted concentrations.

human VEGF [3] = target: T1, human VEGF; assay: as above
human VEGF [4] = target: T1, human VEGF; assay: ELISA, human VEGF coated, absorbance 650 nm [g]

Measured: binding

B1: HF2-12 (antibody, V domains shown)
VH: EVQLVESGGGLVQPGGSLRLSCAASYSEVRSHGMQWVRQAPGKGLEYVAGISSDGSWFRVAAAVEGRFTISRDDSKNTAYLQMNSLRAEDTAVYYCARDFSTGYGADSIDAWGQGTLVTVSS
VL: DIQMTQSPSSLSASVGDRVTITCSGGSMEPLGYGWYQQKPGKAPKTLIYWDDKRPSGVPSRFSGSRSGTDFTLTISSLQPEDFATYYCGAWEYSGGVGIFGQGTKVEIK
not listed: human VEGF [4]
binds: all other assays above

B2: HF2-24 (antibody, V domains shown)
VH: B1 VH with Y26R, S27F, E28N, V29M, F58V, R59K
VL: B1 VL with M28Q, P30S
not listed: human VEGF [1]
binds: all other assays above
